PubChem BioAssay AID504791, Drosophila RNAi Screening Center, 2011
Test: 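Factors in Argonaute-based small RNA production and activity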 (primary screen). Cells: Drosophila S2-derived reporter cells. Reagents: long dsRNA against Drosophila genes, about 150-250 ng dsRNA per well (siRNA assay); about 80-120 ng (miRNA assay). Duration: about 5 days (siRNA assay); about 4 days (miRNA assay). Treatment: copper sulfate induction of reporters: 25 µM (siRNA assay); 200 mM stated (miRNA assay), 1-2 days before reading. Read-out: 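Per-well ratio of Renilla over firefly light, expressed relative to that plate's average ratio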. Rule for the call: 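First-pass picks had plate-scaled ratios over 1.5 for the siRNA assay, over 1.6 for the miRNA assay, or under 0.6; two distinct dsRNAs had to score alike on retest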.
In all, the deposit lists about 23,000 reagents; below is an unselected part of those with a known target gene and a result. Over the whole deposit, 199 (0.86%) got an active call. 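Plate-scaled ratios behind the calls are not deposited; printed light signals are raw; many rows marked increased or decreased are still called inactive.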 The numbers tell different reagents against one gene apart. A plus sign joins genes that one reagent is predicted to hit. Not stated in the record: the direction of the score.

gene knocked down | reagent | stable siRNA reporter change | miRNA reporter change | stable assay Renilla, run 1 (luminescence) | stable assay firefly, run 1 (luminescence) | call
Gip (GeneID 31960) | 1 | – | – | 4452 | 4.51e5 | inactive
CG34024 (retired record) (GeneID 3885580) | 1 | – | – | 7287 | 4.58e5 | inactive
CG5188 (GeneID 34428) | 1 | – | – | 7384 | 3.82e5 | inactive
CG31128 (GeneID 318601) | 1 | – | – | 4787 | 4.01e5 | inactive
CG4820 (GeneID 41344) | 1 | – | – | 6270 | 3.81e5 | inactive
RhoGAP1A (GeneID 5740235) | 1 | – | – | 4679 | 3.01e5 | inactive
RhoGAP1A (GeneID 5740235) | 2 | – | – | 4819 | 2.60e5 | inactive
CG33080 (GeneID 31491) | 1 | – | – | 7148 | 4.49e5 | inactive
CG33080 (GeneID 31491) | 2 | – | – | 7914 | 5.12e5 | inactive
CG33080 (GeneID 31491) | 3 | – | – | 6279 | 3.67e5 | inactive
Nse1 (GeneID 33938) | 1 | – | – | 15779 | 1.03e6 | inactive
CG43394 (GeneID 318843) | 1 | – | – | 5152 | 3.78e5 | inactive
CG9961 (GeneID 33459) | 1 | – | – | 7395 | 3.84e5 | inactive
CG9961 (GeneID 33459) | 2 | – | – | 4144 | 3.34e5 | inactive
Mst89B (GeneID 41972) | 1 | – | – | 7755 | 5.18e5 | inactive
Cad96Ca (GeneID 43026) | 1 | – | – | 6687 | 2.79e5 | inactive
Cad96Ca (GeneID 43026) | 2 | – | – | 6270 | 3.11e5 | inactive
Gr39b (GeneID 117347) | 1 | – | – | 4628 | 4.20e5 | inactive
Irk1 (GeneID 42742) | 1 | – | – | 6046 | 2.91e5 | inactive
CG17147 (GeneID 40216) | 1 | – | – | 6104 | 4.87e5 | inactive
CG4839 (GeneID 34348) | 1 | – | – | 14232 | 4.36e5 | inactive
CG4839 (GeneID 34348) | 2 | – | – | 7559 | 3.66e5 | inactive
CG11030 (GeneID 33805) | 1 | – | – | 7590 | 2.93e5 | inactive
CG4853 (GeneID 36974) | 1 | – | – | 10351 | 4.01e5 | inactive
CG5065 (GeneID 36860) | 1 | – | – | 5659 | 2.71e5 | inactive
PMCA (GeneID 43787) | 1 | – | – | 7834 | 3.77e5 | inactive
PMCA (GeneID 43787) | 2 | – | – | 7870 | 3.95e5 | inactive
PMCA (GeneID 43787) | 3 | – | – | 7746 | 3.82e5 | inactive
ebo (GeneID 47141) | 1 | – | – | 7191 | 4.65e5 | inactive
Listericin (GeneID 36183) | 1 | – | – | 7237 | 4.12e5 | inactive
CG33271 (GeneID 2768972) | 1 | reporter ratio raised past the hit cutoff | – | 6146 | 2.38e5 | inactive
Galk (GeneID 39031) | 1 | – | – | 8816 | 4.66e5 | inactive
Gr59e (GeneID 37725) | 1 | – | – | 6595 | 4.96e5 | inactive
CG6012 (GeneID 35022) | 1 | – | – | 7347 | 3.91e5 | inactive
CG32681 (GeneID 318151) | 1 | – | – | 5943 | 4.83e5 | inactive
CG14456 (GeneID 40481) | 1 | – | – | 7383 | 5.09e5 | inactive
Npl4 (GeneID 43091) | 1 | – | – | 6547 | 4.28e5 | inactive
Npl4 (GeneID 43091) | 2 | – | – | 5754 | 3.53e5 | inactive
CG30395 (GeneID 246589) | 1 | – | – | 6552 | 5.68e5 | inactive
CG15865 (GeneID 32641) | 1 | – | – | 4692 | 3.61e5 | inactive
CG3419 (retired record) (GeneID 37896) | 1 | – | – | 6955 | 5.12e5 | inactive
CG3419 (retired record) (GeneID 37896) | 2 | – | reporter ratio lowered past the hit cutoff | 5496 | 3.36e5 | inactive
dsb (GeneID 38252) | 1 | – | – | 4428 | 2.53e5 | inactive
dsb (GeneID 38252) | 2 | – | – | 5335 | 3.29e5 | inactive
Obp56a (GeneID 37264) | 1 | – | – | 5366 | 2.68e5 | inactive
CG13137 (GeneID 34349) | 1 | – | – | 8218 | 3.49e5 | inactive
CG32066 (GeneID 39206) | 1 | – | – | 10598 | 5.73e5 | inactive
CG32066 (GeneID 39206) | 2 | – | – | 8089 | 4.58e5 | inactive
Opa1 (GeneID 36578) | 1 | – | – | 7198 | 4.06e5 | inactive
Elba2 (GeneID 33442) | 1 | – | – | 15759 | 6.23e5 | inactive
mask (GeneID 50070) | 1 | – | – | 8125 | 3.02e5 | inactive
mask (GeneID 50070) | 2 | – | – | 10019 | 3.62e5 | inactive
mask (GeneID 50070) | 3 | – | – | 9939 | 3.14e5 | inactive
CG32755 (GeneID 318192) | 1 | – | – | 5327 | 2.92e5 | inactive
Atat (GeneID 39086) | 1 | – | – | 8497 | 4.49e5 | inactive
beat-VII (GeneID 43213) | 1 | – | – | 7439 | 5.37e5 | inactive
beat-VII (GeneID 43213) | 2 | – | – | 6779 | 4.93e5 | inactive
beat-VII (GeneID 43213) | 3 | – | reporter ratio raised past the hit cutoff | 5767 | 3.17e5 | inactive
beat-VII (GeneID 43213) | 4 | – | – | 4451 | 4.65e5 | inactive
Slc25A46a (GeneID 32564) | 1 | – | – | 8236 | 5.61e5 | inactive
CG9903 (GeneID 32621) | 1 | – | – | 6123 | 5.24e5 | inactive
milt (GeneID 45683) | 1 | – | – | 5894 | 3.81e5 | inactive
milt (GeneID 45683) | 2 | – | – | 5275 | 4.50e5 | inactive
milt (GeneID 45683) | 3 | – | – | 20779 | 5.78e5 | inactive
CSN5 (GeneID 42000) | 1 | – | – | 8988 | 3.74e5 | inactive
CSN5 (GeneID 42000) | 2 | – | – | 7327 | 5.62e5 | inactive
MED6 (GeneID 44728) | 1 | – | – | 7166 | 3.61e5 | inactive
CG14989 (GeneID 38485) | 1 | – | – | 9001 | 5.69e5 | inactive
CG2681 (GeneID 31258) | 1 | – | – | 6348 | 3.07e5 | inactive
SmydA-1 (GeneID 36581) | 1 | – | – | 6998 | 4.00e5 | inactive
scny (GeneID 38648) | 1 | – | reporter ratio lowered past the hit cutoff | 7707 | 4.30e5 | active
scny (GeneID 38648) | 2 | – | – | 6358 | 3.37e5 | inactive
scny (GeneID 38648) | 3 | – | – | 5808 | 3.13e5 | inactive
CG15803 (GeneID 42206) | 1 | – | – | 7138 | 3.58e5 | inactive
CG14259 (GeneID 43261) | 1 | – | – | 6758 | 4.08e5 | inactive
CG7509 (GeneID 38579) | 1 | – | – | 7175 | 3.68e5 | inactive
Cpr67Fa2 (GeneID 39224) | 1 | – | – | 4884 | 3.11e5 | inactive
nvd (GeneID 5740633) | 1 | – | – | 8923 | 5.53e5 | inactive
Mst84Dc (GeneID 40887) | 1 | – | – | 6111 | 4.17e5 | inactive
Eig71Ed (GeneID 39704) | 1 | – | – | 7319 | 4.52e5 | inactive
CG34166 (GeneID 5740596) | 1 | – | – | 3983 | 4.17e5 | inactive
CG11192 (GeneID 37309) | 1 | – | – | 6870 | 3.99e5 | inactive
CG32320 (GeneID 317977) | 1 | – | – | 8223 | 3.83e5 | inactive
CG13838 (GeneID 42719) | 1 | – | – | 3271 | 4.12e5 | inactive
bip1 (GeneID 38891) | 1 | – | reporter ratio raised past the hit cutoff | 8171 | 3.97e5 | inactive
CG33307 (GeneID 2768914) | 1 | – | – | 5651 | 4.37e5 | inactive
CG34458 (GeneID 5740868) | 1 | – | – | 6495 | 2.73e5 | inactive
ClpX (GeneID 42369) | 1 | – | – | 10988 | 4.70e5 | inactive
stol (GeneID 34921) | 1 | – | – | 6688 | 2.52e5 | inactive
CG15729 (retired record) (GeneID 32204) | 1 | – | – | 5915 | 4.42e5 | inactive
CG14340 (GeneID 33287) | 1 | – | – | 7594 | 3.43e5 | inactive
Ugt37B1 (GeneID 53584) | 1 | – | – | 7504 | 3.93e5 | inactive
Ehbp1 (GeneID 36912) | 1 | – | – | 11618 | 3.59e5 | inactive
CG9663 (GeneID 33541) | 1 | – | – | 26102 | 2.96e5 | inactive
Ric (GeneID 36776) | 1 | – | – | 6172 | 3.35e5 | inactive
Asap (GeneID 35783) | 1 | – | – | 7366 | 4.22e5 | inactive
Asap (GeneID 35783) | 2 | – | – | 8887 | 4.09e5 | inactive
Kap-alpha1 (GeneID 40160) | 1 | – | – | 6456 | 3.50e5 | inactive
CG12128 (GeneID 36042) | 1 | – | – | 7535 | 4.42e5 | inactive
CG42353 + CG42354 | 1 | – | – | 4392 | 2.49e5 | inactive
cN-IIIB (GeneID 37875) | 1 | – | – | 7571 | 1.62e6 | inactive
witty (GeneID 34145) | 1 | – | – | 6279 | 3.65e5 | inactive
witty (GeneID 34145) | 2 | – | – | 9097 | 5.47e5 | inactive
Btk (GeneID 34132) | 1 | – | – | 8097 | 3.14e5 | inactive
Btk (GeneID 34132) | 2 | – | – | 10046 | 1.10e6 | inactive
Btk (GeneID 34132) | 3 | – | – | 4911 | 4.49e5 | inactive

Hits (from the list above):
gene knocked down | reagent | stable siRNA reporter change | miRNA reporter change | stable assay Renilla, run 1 (luminescence) | stable assay firefly, run 1 (luminescence) | call
scny (GeneID 38648) | 1 | – | reporter ratio lowered past the hit cutoff | 7707 | 4.30e5 | active
